Results as given in the supplement of paper PMC10849652.
The other results are listed elsewhere or left out.

The chains behind the UniProt entries cited, without tags or fusion partners. Where a name states a change or a piece, a line headed by the entry shows the natural chain unless it says otherwise.
UniProt Q86VG3: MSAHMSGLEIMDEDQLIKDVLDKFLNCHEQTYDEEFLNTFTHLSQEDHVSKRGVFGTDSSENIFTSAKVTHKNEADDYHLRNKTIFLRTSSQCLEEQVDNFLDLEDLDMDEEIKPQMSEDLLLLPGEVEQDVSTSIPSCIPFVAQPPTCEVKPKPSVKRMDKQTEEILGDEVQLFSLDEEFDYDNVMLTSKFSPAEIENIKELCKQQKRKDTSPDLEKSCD
UniProt Q96HA4: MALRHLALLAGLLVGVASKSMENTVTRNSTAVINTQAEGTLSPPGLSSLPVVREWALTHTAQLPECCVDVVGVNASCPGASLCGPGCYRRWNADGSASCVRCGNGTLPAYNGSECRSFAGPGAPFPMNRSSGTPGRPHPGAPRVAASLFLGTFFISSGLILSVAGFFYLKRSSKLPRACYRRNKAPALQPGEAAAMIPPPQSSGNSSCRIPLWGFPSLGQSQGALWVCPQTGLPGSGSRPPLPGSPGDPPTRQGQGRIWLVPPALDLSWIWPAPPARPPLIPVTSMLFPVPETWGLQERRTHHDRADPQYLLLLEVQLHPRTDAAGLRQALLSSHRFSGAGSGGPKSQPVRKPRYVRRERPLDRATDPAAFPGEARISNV
UniProt Q8TCD1: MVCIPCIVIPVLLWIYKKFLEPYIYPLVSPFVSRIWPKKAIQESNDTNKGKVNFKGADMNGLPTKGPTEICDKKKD
UniProt Q9H3J6: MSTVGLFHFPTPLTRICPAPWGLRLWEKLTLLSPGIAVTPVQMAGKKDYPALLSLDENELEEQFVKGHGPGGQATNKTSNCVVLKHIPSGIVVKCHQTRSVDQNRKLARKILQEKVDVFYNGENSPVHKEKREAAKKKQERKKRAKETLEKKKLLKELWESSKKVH
UniProt P27482, whole entry, looked up: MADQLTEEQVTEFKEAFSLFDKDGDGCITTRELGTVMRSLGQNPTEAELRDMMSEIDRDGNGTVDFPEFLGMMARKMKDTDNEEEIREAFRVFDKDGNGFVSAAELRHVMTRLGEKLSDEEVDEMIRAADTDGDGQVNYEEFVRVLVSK
UniProt Q01518, whole entry, looked up: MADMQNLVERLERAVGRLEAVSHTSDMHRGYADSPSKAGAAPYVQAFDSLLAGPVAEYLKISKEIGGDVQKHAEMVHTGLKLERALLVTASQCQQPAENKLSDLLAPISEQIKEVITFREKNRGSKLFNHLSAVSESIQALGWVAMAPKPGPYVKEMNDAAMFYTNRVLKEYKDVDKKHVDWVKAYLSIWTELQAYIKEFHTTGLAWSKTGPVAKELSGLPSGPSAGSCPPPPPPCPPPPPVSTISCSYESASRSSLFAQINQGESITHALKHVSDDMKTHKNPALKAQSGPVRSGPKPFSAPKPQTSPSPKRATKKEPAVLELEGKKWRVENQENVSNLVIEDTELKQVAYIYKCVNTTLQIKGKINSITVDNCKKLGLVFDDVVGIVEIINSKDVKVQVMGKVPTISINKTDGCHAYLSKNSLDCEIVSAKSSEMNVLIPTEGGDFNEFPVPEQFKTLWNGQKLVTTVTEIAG
UniProt Q16581: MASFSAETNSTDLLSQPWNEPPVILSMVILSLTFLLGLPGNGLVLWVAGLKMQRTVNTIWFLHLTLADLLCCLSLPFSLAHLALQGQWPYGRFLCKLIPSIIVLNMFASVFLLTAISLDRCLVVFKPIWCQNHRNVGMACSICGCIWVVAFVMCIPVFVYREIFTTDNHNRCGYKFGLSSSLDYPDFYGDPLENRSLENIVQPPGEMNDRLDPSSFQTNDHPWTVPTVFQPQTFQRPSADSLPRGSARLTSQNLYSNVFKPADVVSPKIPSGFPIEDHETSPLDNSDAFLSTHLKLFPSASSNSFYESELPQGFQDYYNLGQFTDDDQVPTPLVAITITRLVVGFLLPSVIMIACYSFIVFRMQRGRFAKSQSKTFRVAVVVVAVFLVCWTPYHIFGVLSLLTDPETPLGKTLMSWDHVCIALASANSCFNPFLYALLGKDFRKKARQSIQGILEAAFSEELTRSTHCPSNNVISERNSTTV
UniProt Q96NL8: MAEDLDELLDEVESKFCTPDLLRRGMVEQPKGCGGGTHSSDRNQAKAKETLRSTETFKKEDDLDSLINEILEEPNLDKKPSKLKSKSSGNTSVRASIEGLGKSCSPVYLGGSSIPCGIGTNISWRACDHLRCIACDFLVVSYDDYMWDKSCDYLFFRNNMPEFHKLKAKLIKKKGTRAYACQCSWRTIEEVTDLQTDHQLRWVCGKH
UniProt Q8N5S9: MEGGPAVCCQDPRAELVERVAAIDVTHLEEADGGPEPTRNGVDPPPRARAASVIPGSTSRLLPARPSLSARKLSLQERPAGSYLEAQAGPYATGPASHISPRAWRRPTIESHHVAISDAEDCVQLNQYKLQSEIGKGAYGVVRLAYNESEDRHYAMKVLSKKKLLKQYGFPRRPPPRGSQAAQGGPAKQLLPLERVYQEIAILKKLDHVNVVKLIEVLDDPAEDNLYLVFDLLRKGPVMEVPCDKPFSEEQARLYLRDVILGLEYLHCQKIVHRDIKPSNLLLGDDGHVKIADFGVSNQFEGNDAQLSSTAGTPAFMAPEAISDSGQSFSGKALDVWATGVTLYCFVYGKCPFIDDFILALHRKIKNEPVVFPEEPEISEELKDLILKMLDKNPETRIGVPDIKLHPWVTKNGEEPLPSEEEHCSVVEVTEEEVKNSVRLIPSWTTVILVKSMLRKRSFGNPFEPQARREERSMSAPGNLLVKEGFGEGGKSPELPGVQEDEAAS
UniProt Q9P1Z2: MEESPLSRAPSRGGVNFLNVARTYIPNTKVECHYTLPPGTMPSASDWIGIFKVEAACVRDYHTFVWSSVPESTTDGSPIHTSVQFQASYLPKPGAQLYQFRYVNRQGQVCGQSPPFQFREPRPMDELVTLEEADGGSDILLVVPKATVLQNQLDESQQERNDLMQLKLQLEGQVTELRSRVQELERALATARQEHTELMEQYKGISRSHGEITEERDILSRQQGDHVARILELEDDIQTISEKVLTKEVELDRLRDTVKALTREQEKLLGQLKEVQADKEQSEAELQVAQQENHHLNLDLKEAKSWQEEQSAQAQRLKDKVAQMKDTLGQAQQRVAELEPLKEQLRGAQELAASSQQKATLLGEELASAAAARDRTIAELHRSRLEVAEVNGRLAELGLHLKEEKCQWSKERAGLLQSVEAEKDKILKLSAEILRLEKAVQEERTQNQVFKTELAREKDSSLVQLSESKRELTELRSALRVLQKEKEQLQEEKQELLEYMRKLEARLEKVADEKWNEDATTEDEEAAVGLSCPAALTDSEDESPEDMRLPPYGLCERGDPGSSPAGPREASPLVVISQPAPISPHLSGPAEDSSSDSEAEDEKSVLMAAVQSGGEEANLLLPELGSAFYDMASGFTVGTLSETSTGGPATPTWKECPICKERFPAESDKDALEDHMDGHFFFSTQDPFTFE
UniProt Q9GZU0: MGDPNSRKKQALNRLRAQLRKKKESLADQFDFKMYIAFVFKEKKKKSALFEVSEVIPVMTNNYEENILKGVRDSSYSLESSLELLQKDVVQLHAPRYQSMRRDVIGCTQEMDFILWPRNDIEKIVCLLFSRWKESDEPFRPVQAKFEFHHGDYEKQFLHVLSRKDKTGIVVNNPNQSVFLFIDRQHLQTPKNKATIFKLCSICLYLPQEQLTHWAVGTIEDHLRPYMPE
UniProt Q9H257: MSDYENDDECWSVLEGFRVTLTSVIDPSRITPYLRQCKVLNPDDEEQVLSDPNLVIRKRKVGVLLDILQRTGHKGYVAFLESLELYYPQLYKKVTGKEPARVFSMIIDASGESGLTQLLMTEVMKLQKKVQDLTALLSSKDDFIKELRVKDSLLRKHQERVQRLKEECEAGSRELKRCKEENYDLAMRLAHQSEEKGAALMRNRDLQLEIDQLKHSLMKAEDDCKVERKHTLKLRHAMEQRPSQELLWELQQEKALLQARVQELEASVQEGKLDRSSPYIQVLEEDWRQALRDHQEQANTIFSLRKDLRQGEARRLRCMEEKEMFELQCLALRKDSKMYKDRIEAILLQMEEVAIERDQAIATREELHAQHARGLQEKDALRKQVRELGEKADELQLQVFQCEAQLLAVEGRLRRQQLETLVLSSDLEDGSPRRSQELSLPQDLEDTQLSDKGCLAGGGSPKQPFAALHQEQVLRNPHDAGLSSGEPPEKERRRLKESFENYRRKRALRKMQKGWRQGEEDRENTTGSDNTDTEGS
UniProt Q7Z6I8: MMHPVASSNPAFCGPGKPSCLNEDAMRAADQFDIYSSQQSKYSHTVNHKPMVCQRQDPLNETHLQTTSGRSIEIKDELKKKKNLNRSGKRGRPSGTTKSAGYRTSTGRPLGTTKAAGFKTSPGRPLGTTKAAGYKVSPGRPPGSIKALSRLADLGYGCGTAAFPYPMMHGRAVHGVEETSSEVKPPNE
UniProt Q32NC0: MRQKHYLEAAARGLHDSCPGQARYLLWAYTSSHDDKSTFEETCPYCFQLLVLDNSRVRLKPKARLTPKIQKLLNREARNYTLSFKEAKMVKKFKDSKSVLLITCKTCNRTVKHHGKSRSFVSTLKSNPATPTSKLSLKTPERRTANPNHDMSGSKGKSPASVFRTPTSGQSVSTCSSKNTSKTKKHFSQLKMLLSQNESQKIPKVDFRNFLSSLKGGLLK
UniProt Q5U649: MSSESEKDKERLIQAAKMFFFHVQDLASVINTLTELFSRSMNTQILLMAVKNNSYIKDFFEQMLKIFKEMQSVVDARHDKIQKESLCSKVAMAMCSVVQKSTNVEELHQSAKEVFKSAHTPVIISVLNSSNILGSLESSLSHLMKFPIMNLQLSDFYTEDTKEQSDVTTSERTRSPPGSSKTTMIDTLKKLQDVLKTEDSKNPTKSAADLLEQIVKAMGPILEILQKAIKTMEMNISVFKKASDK
UniProt Q96L12: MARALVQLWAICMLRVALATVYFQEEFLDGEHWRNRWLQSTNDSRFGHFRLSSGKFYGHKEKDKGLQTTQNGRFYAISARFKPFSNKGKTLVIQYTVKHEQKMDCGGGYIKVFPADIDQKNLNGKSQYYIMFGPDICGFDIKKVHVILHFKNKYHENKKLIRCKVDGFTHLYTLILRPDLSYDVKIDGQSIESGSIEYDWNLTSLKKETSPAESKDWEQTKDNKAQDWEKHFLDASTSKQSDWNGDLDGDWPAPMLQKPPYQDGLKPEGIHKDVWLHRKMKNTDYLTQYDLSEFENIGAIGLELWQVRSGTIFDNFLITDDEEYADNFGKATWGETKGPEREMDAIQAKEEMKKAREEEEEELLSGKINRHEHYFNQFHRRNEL
UniProt Q96MH7: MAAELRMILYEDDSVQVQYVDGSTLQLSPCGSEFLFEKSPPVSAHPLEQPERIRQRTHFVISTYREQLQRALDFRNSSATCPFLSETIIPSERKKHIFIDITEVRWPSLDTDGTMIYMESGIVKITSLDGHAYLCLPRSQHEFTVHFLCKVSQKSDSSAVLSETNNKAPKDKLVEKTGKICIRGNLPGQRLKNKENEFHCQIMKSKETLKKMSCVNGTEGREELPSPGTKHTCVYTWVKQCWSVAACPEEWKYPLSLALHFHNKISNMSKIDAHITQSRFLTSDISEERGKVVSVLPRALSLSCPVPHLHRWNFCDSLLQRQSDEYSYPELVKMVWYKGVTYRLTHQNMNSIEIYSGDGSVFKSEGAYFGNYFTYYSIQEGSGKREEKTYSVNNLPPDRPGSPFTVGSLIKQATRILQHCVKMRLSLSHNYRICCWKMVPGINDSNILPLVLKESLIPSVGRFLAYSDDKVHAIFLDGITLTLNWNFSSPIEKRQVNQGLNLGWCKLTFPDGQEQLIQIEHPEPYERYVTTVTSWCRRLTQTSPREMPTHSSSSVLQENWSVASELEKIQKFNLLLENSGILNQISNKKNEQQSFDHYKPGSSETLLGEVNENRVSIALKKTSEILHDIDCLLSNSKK
UniProt P02748: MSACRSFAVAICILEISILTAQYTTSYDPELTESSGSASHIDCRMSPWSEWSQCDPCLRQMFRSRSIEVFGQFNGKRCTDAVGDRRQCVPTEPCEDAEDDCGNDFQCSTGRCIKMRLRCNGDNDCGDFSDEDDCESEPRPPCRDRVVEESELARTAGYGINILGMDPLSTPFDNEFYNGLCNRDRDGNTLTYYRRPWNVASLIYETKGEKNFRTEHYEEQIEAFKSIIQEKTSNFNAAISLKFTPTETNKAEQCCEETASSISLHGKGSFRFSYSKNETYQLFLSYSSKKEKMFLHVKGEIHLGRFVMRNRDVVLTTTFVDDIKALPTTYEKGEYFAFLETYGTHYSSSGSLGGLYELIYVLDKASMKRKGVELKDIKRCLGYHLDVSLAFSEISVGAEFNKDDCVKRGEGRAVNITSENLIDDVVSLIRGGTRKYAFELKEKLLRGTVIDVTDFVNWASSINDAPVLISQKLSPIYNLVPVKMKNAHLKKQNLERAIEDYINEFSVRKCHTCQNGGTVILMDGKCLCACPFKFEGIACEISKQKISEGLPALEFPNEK
UniProt Q96GV9: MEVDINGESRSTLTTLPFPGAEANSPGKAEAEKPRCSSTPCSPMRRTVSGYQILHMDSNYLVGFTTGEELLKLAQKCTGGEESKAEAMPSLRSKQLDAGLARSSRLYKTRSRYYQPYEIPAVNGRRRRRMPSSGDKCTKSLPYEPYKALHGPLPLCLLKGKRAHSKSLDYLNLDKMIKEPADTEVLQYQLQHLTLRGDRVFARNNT

Assays:
Assay in all cases: log2 fold change, soluble protein after heating vs DMSO (PISA); higher = thermal stabilisation; K562 cells, 10 uM, 30 min; active = over 0.2 and 3.5 SD of the protein, either way, in both replicates (recomputed)
[1] = compound: CC1=C(C=C(C=C1)NC(=O)C2=CC(=CC=C2)C(C)(C)C#N)NC3=CC4=C(C=C3)N=CN(C4=O)C
How it was run: (§1)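 K562 cells at 2×10^6 cells/mL were given 10 μM compound for 30 min. Aliquots then went through 3 min of heating across 48°C-58°C, were pooled, and were extracted in PBS with 0.5% NP-40 at 4°C, and the supernatant after 21,000xg for 90 min was quantified by TMTpro 16plex LC-MS/MS with channel sums equalised. Thermal stability relative to control samples, from duplicates, is given as log2 fold change.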

[2] = compound: CC1=CC=C(C=C1)SC2=C3C=C(SC3=CN=C2)C(=O)N
How it was run: as §1

[3] = compound: CCCS(=O)(=O)Nc1ccc(F)c(C(=O)c2c[nH]c3ncc(-c4ccc(Cl)cc4)cc23)c1F [vemurafenib]
How it was run: as §1

[4] = compound: CCCS(=O)(=O)Nc1ccc(F)c(C(=O)c2c[nH]c3ncc(Cl)cc23)c1F
How it was run: as §1

[5] = compound: CC1=NC(=CC=C1)C2=C(N=C(N2)C(C)(C)C)C3=CC4=NC=CN=C4C=C3
How it was run: as §1

[6] = compound: CCCCN(Cc1ccc(C(=O)NO)cc1)C(=O)Nc1ccccc1 [Nexturastat A]
How it was run: as §1

[7] = compound: CCCc1cc(C)[nH]c(=O)c1CNC(=O)c1cc(-c2ccnc(N3CCN(C)CC3)c2)cc2c1cnn2C(C)C
How it was run: as §1

[8] = compound: CCN(CC)Cc1ccc2cc(COC(=O)Nc3ccc(C(=O)NO)cc3)ccc2c1 [givinostat]
How it was run: as §1

[9] = compound: CCN(CCCOc1ccc2c(Nc3cc(CC(=O)Nc4cccc(F)c4)[nH]n3)ncnc2c1)CCOP(=O)(O)O [barasertib]
How it was run: as §1

[10] = compound: CC1=C(C=C(C=C1)NC(=O)C2=CC(=CC=C2)N(C)C)NC(=O)C3=CC=C(C=C3)O
How it was run: as §1

Measured: log2 fold change

C1orf112 (UniProt Q9NSG2)
inactive: [1] -0.082 | [2] 0.016 | [3] 0.168 | [4] -0.013

C11orf74 (UniProt Q86VG3)
inactive: [1] 0.017 | [5] 0.134 | [6] 0.365 | [3] 0.085 | [7] -0.119 | [8] -0.028

C1orf159 isoform 4 (UniProt Q96HA4)
inactive: [1] -0.202 | [3] 0.004 | [9] 0.069

C18orf32 (UniProt Q8TCD1)
inactive: [1] 0.098 | [10] 0.001 | [2] -0.004 | [6] -0.066 | [3] 0.057 | [4] -0.071 | [7] -0.038 | [8] -0.014 | [9] 0.02

C5 (UniProt P01031)
inactive: [1] -0.144 | [5] -0.111 | [6] -0.073 | [3] -0.257

CALD1 (UniProt Q05682)
inactive: [1] -0.02 | [10] -0.054 | [2] 0.008 | [5] 0.081 | [6] 0.039 | [4] 0.086 | [8] 0.073

BTBD6 (UniProt Q96KE9)
inactive: [1] -0.061 | [10] -0.108 | [2] 0.003 | [6] 0.531 | [3] 0.002 | [4] 0.007 | [7] -0.017 | [8] 0.358 | [9] -0.017

C11orf24 (UniProt Q96F05)
inactive: [1] 0.024 | [10] 0.011 | [5] -0.185 | [6] -0.059 | [8] -0.339 | [9] -0.004

C12orf65 (UniProt Q9H3J6)
inactive: [1] -0.13 | [10] 0.044 | [5] -0.115 | [3] -0.152 | [7] 0.076 | [8] 0.03 | [9] -0.206

C16orf70 (UniProt Q9BSU1)
inactive: [1] -0.197 | [2] -0.01 | [5] -0.103 | [6] -0.054 | [4] -0.03

BTRC (UniProt Q9Y297)
inactive: [1] -0.008 | [2] 0.07 | [5] -0.048 | [6] -0.053 | [3] 0.057 | [4] 0.016 | [7] -0.05 | [8] -0.024 | [9] 0.085

CALML3 (UniProt P27482)
inactive: [2] -0.139 | [6] 0.022 | [4] -0.128 | [7] 0.121

BTBD10 isoform 2 (UniProt Q9BSF8)
inactive: [2] -0.255 | [4] -0.337

C8orf88 (UniProt P0DMB2)
inactive: [10] 0.034 | [2] -0.169 | [5] -0.075 | [6] -0.08 | [3] -0.182 | [4] -0.323 | [7] -1.36 | [8] 0.018 | [9] 0.032

CAMK1 (UniProt Q14012)
inactive: [10] 0.365 | [9] 0.008

CARD19 isoform 2 (UniProt Q96LW7)
inactive: [10] -0.064 | [5] -0.036 | [6] 0.04 | [3] -0.036 | [7] -0.012 | [9] -0.277

CAPNS1 (UniProt U3KPR7)
inactive: [8] 0.082

C19orf57 (UniProt Q0VDD7)
inactive: [10] 0.065 | [5] -0.008 | [3] -0.035 | [8] 0.06 | [9] -0.066

CAP1 isoform 2 (UniProt Q01518)
inactive: [5] 0.009 | [7] 0.175 | [9] 0.017

C17orf99 (UniProt Q6UX52)
inactive: [6] 0.331 | [7] -0.064 | [8] 0.073

C3orf86 (UniProt P0DN24)
inactive: [7] -0.083

CAPNS2 (UniProt Q96L46)
inactive: [10] -0.134 | [5] -0.068 | [7] 0.132

C3AR1 (UniProt Q16581)
inactive: [9] -0.328

Random excerpt: three entries already listed, in no set order.
C3AR1 (UniProt Q16581)
inactive: [9] -0.328

C19orf57 (UniProt Q0VDD7)
inactive: [10] 0.065 | [5] -0.008 | [3] -0.035 | [8] 0.06 | [9] -0.066

CAP1 isoform 2 (UniProt Q01518)
inactive: [5] 0.009 | [7] 0.175 | [9] 0.017

More results.

CA1 (UniProt E5RIF9)
inactive: [6] -0.413 | [3] -0.383 | [9] -0.004

C8orf37 (UniProt Q96NL8)
inactive: [6] -0.136 | [8] -0.052

BTN2A1 (UniProt Q7KYR7)
inactive: [10] -0.05 | [2] -0.029 | [5] 0.003 | [6] 0.266 | [3] 0.07 | [4] -0.064 | [8] 0.039 | [9] -0.039

C19orf12 (UniProt Q9NSK7)
inactive: [2] 0.085 | [6] 0.083 | [4] 0.046 | [7] -0.011 | [9] -0.009

CAMKK1 isoform 2 (UniProt Q8N5S9)
inactive: [2] -0.031 | [4] 0.03

CALCOCO1 (UniProt Q9P1Z2)
inactive: [10] -0.085 | [2] 0.037 | [5] -0.024 | [6] 0.119 | [3] -0.02 | [4] -0.022 | [7] 0.044 | [8] 0.03 | [9] 0.042

C6orf62 (UniProt Q9GZU0)
inactive: [6] 0.199 | [8] -0.027

CARD9 (UniProt Q9H257)
inactive: [10] -0.15 | [5] 0.052 | [8] -0.106

C5orf24 (UniProt Q7Z6I8)
inactive: [2] -0.114 | [6] -0.09 | [3] -0.224 | [4] -0.041 | [7] 0.087

C9orf16 (UniProt Q9BUW7)
inactive: [7] -0.007

C18orf21 (UniProt Q32NC0)
inactive: [7] 0.132

C12orf60 (UniProt Q5U649)
inactive: [2] 0.012 | [6] 0.165 | [4] 0.124 | [8] 0.192 | [9] 0.009

CA2 (UniProt P00918)
inactive: [2] -0.073 | [3] -0.028 | [4] -0.199 | [7] -0.028 | [8] 0.067 | [9] 0.051

BSN (UniProt Q9UPA5)
inactive: [3] 0.047

CALR3 (UniProt Q96L12)
inactive: [5] -0.101

C5orf34 (UniProt Q96MH7)
inactive: [7] -0.075

C7orf50 (UniProt Q9BRJ6)
inactive: [10] -0.031 | [3] 0.012

C9 (UniProt P02748)
inactive: [10] 0.228 | [6] -0.007 | [7] -0.104

CABIN1 (UniProt Q9Y6J0)
inactive: [7] -0.049 | [8] 0.064

CABLES2 (UniProt Q9BTV7)
inactive: [5] 0.065 | [7] 0.155

C5orf30 (UniProt Q96GV9)
inactive: [2] -0.126 | [6] -0.186 | [4] 0.103
